Data published in US5550213, “Inhibitors of urokinase plasminogen activator” (Rutgers, The State University of New Jersey, dated 1996).

Target: Urokinase plasminogen activator (Homo sapiens (Human), UniProt P00749)
Test: inhibition of UK activity; Ki by non-linear regression (Enzfitter) of free enzyme versus inhibitor concentration
Procedure: Fractional enzyme activities for each inhibitor-UK interaction of the above discussed inhibitors were determined by the assay method of Empie and Laskowski (Empie, M. W. et al., *Biochem.* 21:2274–2284 (1982)), as adapted from Green and Work (Green, N. M. et al., Biochem. J. 54:347–352 (1953)). The concentration of UK used for these reactions was 35 nM. The reactions were carried out in Buffer C. […] These five mutants include the four detailed above (88, 89, 80, AND 91), and also a mutant with arginine at the P1 site of OM3TKY (P1-Arg). […] The values for PSTI, PAI-1, PAI-2, and Nexin-1 were obtained from Turpeinen, U. et al. (*Biochem. J.* 254:911–914 (1988)), Kruithof, C.K.O. et al. (Thromb.-Haemost. 55::65–68 (1986)), Christensen, U. et al. (Thromb.-Haemost. 48:24–26 (1982)), and Stein, P. E. et al. (*Nature* 347:99–102 (1990)), respectively.
K_i values for the wild-type and mutant inhibitors versus urokinase were also determined by non-linear regression of the following equation: […]
The non-linear regression was done using the program Enzfitter, by Robin Leatherbarrow. E_o represents a total enzyme concentration in the reaction, I_o represents total inhibitor concentration, E is the free enzyme for a given inhibitor concentration and K_i is the equilibrium constant for the inhibitor. […] Enzyme and inhibitor concentrations used were determined as mentioned above.

Ki: 796 nM
B1: wild type turkey ovomucoid third domain (other)
chain: VDCSEYPKPACTLEYRPLCGSDNKTYGNKCNFCNAVVESNGTLTLSHFGKC
